No constants are given. Whether binding was seen depends on the method and setting. A result given as binding can be weak or reduced; the word gives no strength.

Consider 1 molecule from paper PMC5175275.

Test [1] has as its target truncated Isl1 lacking 40 amino acids at the C-terminus (bait pGBKT7-Isl1-860bp). The test can be described thus: two-hybrid; retest: single bait and prey plasmids cotransformed into Yeast Gold; clones patched onto DDO/X/A and QDO/X/A medium.
Test [2] shares this target. The experiment in a line: two-hybrid; library screen: Yeast Gold with bait pGBKT7-Isl1-860bp mated with yeast containing a mouse testis cDNA library; selection on DDO/X/A for 5 days at 30 °C, then on QDO/X/A.

B1: protein inhibitor of activated STAT Y (PIASy), prey in pGADT7 (protein, UniProt Q9JM05 1-507)
chain: MAAELVEAKNMVMSFRVSDLQMLLGFVGRSKSGLKHELVTRALQLVQFDCSPELFKKIKELYETRYAKKSAEPGPQAPRPLDPLALHSMPRTPLSGPTVDYPVLYGKYLNGLGRLPTKTLKPEVRLVKLPFFNMLDELLKPTELVPQSAEKLQESPCIFALTPRQVEMIRNSRELQPGVKAVQVVLRICYSDTSCPQEDQYPPNIAVKVNHSYCSVPGYYPSNKPGVEPKRPCRPINLTHLMYLSSATNRITVTWGNYGKSYSVALYLVRQLTSSDLLQRLKTIGVKHPELCKALVKEKLRLDPDSEIATTGVRVSLICPLVKMRLSVPCRAETCAHLQCFDAVFYLQMNEKKPTWMCPVCDKPAAYDQLIIDGLLSKILSECEGADEIEFLAEGSWRPIRAEKEPSCSPQGPILVLGTSDANGLAPASSTPGIGSGLSGPGSAGSGAGAAGSLENGKTGADVVDLTLDSSSSSEDEDEDEDDDEDEDEGPRPKRRCPFQKGLVPAC
B1: the binding entry in test [1] and in test [2] was “binds” each time.
